# Measured values taken from publication PMC5996148.
# Some of the results follow.
# Columns and labels:
# Assay in all cases: protein microarray (ProtoArray v5.0), streptavidin-Alexa Fluor 647
# Settings in all cases: 3'-biotin; 20 mM Tris (pH 7.5), 5 mM MgCl2, 100 mM KCl, 0.1% Tween-20, A/T-rich and random oligonucleotide blockers; temperature not stated; high values mean tight binding
# [1] = system: Adenylate kinase isoenzyme 2, mitochondrial (human)
# [2] = system: Adenylate kinase isoenzyme 4, mitochondrial (human)
# [3] = system: Aldehyde dehydrogenase family 16 member A1 (human)
# [4] = system: Aldehyde dehydrogenase family 3 member B1 (human)
# [5] = system: Aldehyde dehydrogenase family 8 member A1 (human)
# [6] = system: Alpha-1,3-mannosyl-glycoprotein 4-beta-N-acetylglucosaminyltransferase B (human)
# Alpha-catulin (human) = system: Alpha-catulin (human)
# [7] = system: Amino-terminal enhancer of split (human)
# [8] = system: Anaphase-promoting complex subunit 11 (human)
# Annexin A4 (human) = system: Annexin A4 (human)
sequence,measurement,setting,value
GGTGACAGGGGTATGGGGAGGGG [G4-2 biotinylated (Ct1)],binding signal,[1],-0.371 z-score
same,binding signal,[2],-0.39 z-score
same,binding signal,[3],-0.382 z-score
same,binding signal,[4],-0.376 z-score
same,binding signal,[5],-0.394 z-score
same,binding signal,[6],-0.377 z-score
same,binding signal,Alpha-catulin (human),-0.392 z-score
same,binding signal,[7],-0.403 z-score
same,binding signal,[8],-0.376 z-score
same,binding signal,Annexin A4 (human),-0.381 z-score
